Experimental data from patent publication US20240138453A1, “FOOD HAVING IMPROVED FLAVOR, NUTRITION, AND COLOR AND PREPARATION METHOD THEREFOR” (KOREA ADVANCED INSTITUTE OF SCIENCE AND TECHNOLOGY, priority 2021, published 2024).

Assays:
[1] = Tasting of cooked pressed-tofu-based vegetable patties
[2] = Appearance of TSP- and tofu-based vegetable patties; settings: for color of vegetable patty after cooking: cooked on low heat, about 17 mg hemin, about 16 mg ZnPPIX or 100 mg hemoglobin per 100 g dough, FIG. 63

Compound	flavor of vegetable patty on tasting ([1]; 10 mg of heme per 50 g dough)	flavor of vegetable patty on tasting ([1]; 18.5 mg of heme per 50 g dough)	color of vegetable patty after cooking [2]	color of patty dough before cooking ([2]; about 17 mg hemin reagent or 100 mg hemoglobin per 100 g dough, compared to negative control, FIG. 62)
C=CC1=C(C)c2cc3[n-]c(cc4[n-]c(cc5nc(cc1n2)C(C)=C5C=C)c(C)c4CCC(=O)O)c(CCC(=O)O)c3C.[Cl-].[Fe+3] [heme, hemin]	the flavor of meat was detected without the flavor of tofu or bean curd soup	a stronger beef flavor was detected	darker brown color similar to that of patties with actual beef and pork added	–
hemoglobin	–	–	light brown color	more grayish brown
